Source: article PMC9440387
No constants are given. Whether binding was seen depends on the method and setting. In cells and extracts the contact can be indirect. Some entries that bind do so weakly or less than the wild type. Tags and fused reporters may be left off the sequences shown.

Chains of the proteins cited; added tags and fusions are not shown. Lines headed by an entry give the natural chain unless they say otherwise; changes in a name come on top.
UniProt Q16531: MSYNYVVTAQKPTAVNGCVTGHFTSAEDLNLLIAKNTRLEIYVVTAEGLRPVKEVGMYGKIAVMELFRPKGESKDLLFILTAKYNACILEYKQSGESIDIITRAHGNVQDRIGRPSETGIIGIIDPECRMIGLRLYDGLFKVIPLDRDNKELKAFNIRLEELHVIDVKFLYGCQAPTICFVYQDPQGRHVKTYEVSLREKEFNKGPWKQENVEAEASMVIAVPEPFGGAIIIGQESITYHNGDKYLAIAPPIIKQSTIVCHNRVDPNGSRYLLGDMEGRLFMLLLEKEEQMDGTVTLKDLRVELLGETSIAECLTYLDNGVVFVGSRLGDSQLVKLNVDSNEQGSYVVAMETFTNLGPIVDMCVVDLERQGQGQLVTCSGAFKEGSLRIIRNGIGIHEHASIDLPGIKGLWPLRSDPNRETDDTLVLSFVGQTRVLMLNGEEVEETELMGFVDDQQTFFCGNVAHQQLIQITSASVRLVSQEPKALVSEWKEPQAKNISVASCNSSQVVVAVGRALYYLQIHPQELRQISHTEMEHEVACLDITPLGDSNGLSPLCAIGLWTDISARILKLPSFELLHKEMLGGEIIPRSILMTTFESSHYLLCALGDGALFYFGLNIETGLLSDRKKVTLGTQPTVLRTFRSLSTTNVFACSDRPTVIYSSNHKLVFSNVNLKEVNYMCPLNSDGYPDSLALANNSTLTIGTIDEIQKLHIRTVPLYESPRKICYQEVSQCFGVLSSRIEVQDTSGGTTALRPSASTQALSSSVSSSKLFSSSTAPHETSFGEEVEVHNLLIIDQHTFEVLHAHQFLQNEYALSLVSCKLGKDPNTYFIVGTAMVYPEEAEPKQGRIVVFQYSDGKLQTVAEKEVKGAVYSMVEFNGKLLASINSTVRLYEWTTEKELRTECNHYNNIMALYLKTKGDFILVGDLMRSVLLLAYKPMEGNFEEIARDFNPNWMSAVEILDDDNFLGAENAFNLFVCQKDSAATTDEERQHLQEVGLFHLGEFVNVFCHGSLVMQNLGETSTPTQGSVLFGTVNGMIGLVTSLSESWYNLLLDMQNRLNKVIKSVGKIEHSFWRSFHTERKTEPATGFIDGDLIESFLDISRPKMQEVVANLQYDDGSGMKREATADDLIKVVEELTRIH
UniProt Q3U1J4: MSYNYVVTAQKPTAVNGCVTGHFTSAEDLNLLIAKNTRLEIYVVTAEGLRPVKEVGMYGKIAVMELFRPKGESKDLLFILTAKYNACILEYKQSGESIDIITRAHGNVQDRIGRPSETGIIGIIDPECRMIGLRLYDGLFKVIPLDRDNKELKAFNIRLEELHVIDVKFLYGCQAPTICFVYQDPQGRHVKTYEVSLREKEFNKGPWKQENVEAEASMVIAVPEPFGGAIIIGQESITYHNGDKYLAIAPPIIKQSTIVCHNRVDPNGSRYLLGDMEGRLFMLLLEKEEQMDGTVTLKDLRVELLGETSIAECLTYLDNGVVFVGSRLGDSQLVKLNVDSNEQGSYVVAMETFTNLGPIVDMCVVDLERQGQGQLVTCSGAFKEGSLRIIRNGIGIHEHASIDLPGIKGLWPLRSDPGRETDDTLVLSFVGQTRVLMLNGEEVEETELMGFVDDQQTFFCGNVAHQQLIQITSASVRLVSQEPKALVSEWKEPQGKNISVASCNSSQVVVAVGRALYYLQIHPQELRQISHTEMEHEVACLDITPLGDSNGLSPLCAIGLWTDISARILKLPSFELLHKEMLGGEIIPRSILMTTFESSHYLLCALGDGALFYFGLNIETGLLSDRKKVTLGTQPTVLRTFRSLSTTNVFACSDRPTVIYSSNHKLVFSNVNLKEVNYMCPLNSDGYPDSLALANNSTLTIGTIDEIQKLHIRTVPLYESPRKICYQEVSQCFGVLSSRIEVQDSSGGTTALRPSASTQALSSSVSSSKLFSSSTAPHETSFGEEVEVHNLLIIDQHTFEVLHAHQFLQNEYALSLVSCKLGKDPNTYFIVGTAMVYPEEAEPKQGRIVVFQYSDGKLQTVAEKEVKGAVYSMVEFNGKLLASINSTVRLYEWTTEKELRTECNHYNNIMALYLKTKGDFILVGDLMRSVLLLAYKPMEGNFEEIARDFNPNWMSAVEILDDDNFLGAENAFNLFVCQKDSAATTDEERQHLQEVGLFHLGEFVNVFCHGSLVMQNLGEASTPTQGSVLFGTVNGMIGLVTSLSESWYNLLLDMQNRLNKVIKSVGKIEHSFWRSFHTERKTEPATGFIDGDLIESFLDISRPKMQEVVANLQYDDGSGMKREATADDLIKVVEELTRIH

Legend:
[1] = molecular target: T1, F-box/WD40 repeat-containing protein Fbxw24 (mouse), 3xFLAG-tagged, overexpressed in HEK-293T (mouse) (UniProt E9PXM9); test: co-IP; HEK-293T cells overexpressing 3xFLAG-Fbxw24; anti-DDDDK tag antibody on Protein G magnetic beads, overnight at 4 C; blots with anti-Ddb1 and anti-Cul4b; control cells as negative control
T1 sequence: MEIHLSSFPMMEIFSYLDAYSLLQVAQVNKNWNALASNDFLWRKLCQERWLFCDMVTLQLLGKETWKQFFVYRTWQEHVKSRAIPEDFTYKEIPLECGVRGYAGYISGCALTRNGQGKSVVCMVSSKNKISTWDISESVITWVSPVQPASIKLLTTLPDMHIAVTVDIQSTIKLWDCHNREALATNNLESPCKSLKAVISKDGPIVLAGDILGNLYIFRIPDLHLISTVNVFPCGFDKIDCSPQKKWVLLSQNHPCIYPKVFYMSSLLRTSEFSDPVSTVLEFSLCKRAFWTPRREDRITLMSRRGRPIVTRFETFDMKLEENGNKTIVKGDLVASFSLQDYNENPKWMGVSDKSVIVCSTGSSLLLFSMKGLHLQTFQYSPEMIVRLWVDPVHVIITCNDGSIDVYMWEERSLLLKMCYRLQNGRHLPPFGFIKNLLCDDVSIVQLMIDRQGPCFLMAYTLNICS

[2] = molecular target: T2, Fbxw24 with knocked-in Linker-3xFlag, endogenous in ovaries of C57BL/6J-Fbxw24^em(Linker-3xFlag) homozygote mice (mouse) (UniProt E9PXM9); test: co-IP; ovaries of C57BL/6J-Fbxw24^em(Linker-3xFlag) homozygote mice, wild-type littermates as control; anti-DDDDK tag antibody on Protein G magnetic beads, overnight at 4 C; blots with anti-Ddb1 and anti-Cul4b
T2 sequence: T1 sequence

| binding [1] | binding [2] | Substance |
| --- | --- | --- |
| binds |  | Ddb1-Cul4b (DNA damage-binding protein 1 and Cullin-4B), endogenous in HEK-293T cells (from UniProt Q16531 1-1140; Q13620 1-913) (complex) |
|  | binds | Ddb1-Cul4b (DNA damage-binding protein 1 and Cullin-4B), endogenous in mouse ovary (from UniProt Q3U1J4 1-1140; A2A432 1-970) (complex) |
